PubChem BioAssay AID652243 | Drosophila RNAi Screening Center – 2013
The screen tested about 24,000 reagents; below is a random part of those that have a named target and a result. Over the whole deposit, 246 (1%) are marked active. 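Plates not normalised; calls are printed but the firefly/Renilla ratio behind them is not deposited; fold cut for lowering reported inconsistently.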 The raw values are shown without normalisation. A plus sign joins genes that one reagent is predicted to hit. Not stated in the record: the amount of reagent.

Screen: 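Fly regulators of androgen-dependent reporter output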 (primary screen)
Cells: Drosophila S2R+ cells
Reagents: long dsRNA against Drosophila genes
Time to read-out: 72 h (48 h, then 24 h hormone)
Treatment: synthetic androgen R1881 at 10 nM for 24 h
Detection: 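Firefly light from an androgen-responsive reporter and Renilla control light per well, raw and unnormalised, for each of two replicates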
Scale: firefly reporter light: higher = more light from androgen-responsive reporter; Renilla control light: higher = more constitutive control signal (cell number, transfection)
Rule for the call: 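Across duplicate plates, a knock-down whose log firefly/Renilla ratio shifted a set fold down or up from the GFP/LacZ control mean was a hit; the downward cut appears as both 1.5 and 3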
Calls: active = hit: reporter lowered or raised; inactive = no hit

Depletion of Tollo [DRSC11305] came out at: firefly reporter light, replicate 1 = 1.98e5; firefly reporter light, replicate 2 = 1.84e5; Renilla control light, replicate 1 = 1.70e6; Renilla control light, replicate 2 = 1.47e6; inactive.
For PKD [DRSC16200] the deposit lists firefly reporter light, replicate 1 = 1.67e5; firefly reporter light, replicate 2 = 2.59e5; Renilla control light, replicate 1 = 1.60e6; Renilla control light, replicate 2 = 2.23e6; inactive.
For PKD [DRSC36937], the values are inactive.
With knock-down of PKD [DRSC36938] the results were inactive.
Silencing of rb [DRSC18826] gave: firefly reporter light, replicate 1 = 1.27e5; firefly reporter light, replicate 2 = 1.40e5; Renilla control light, replicate 1 = 1.82e6; Renilla control light, replicate 2 = 2.45e6; inactive.
With knock-down of rb [DRSC27940], the screen gave firefly reporter light, replicate 1 = 1.10e6; firefly reporter light, replicate 2 = 5.24e5; Renilla control light, replicate 1 = 3.49e6; Renilla control light, replicate 2 = 1.65e6; inactive.
Against Or45b [DRSC07488] the deposit lists firefly reporter light, replicate 1 = 3.75e5; firefly reporter light, replicate 2 = 2.22e5; Renilla control light, replicate 1 = 1.84e6; Renilla control light, replicate 2 = 1.75e6; inactive.
Against CG4629 [DRSC00659], the entry reads firefly reporter light, replicate 1 = 1.67e5; firefly reporter light, replicate 2 = 1.26e5; Renilla control light, replicate 1 = 1.14e6; Renilla control light, replicate 2 = 1.12e6; inactive.
Knock-down of CG4629 [DRSC27952] gave: firefly reporter light, replicate 1 = 9.26e5; firefly reporter light, replicate 2 = 4.02e5; Renilla control light, replicate 1 = 2.10e6; Renilla control light, replicate 2 = 9.57e5; inactive.
With knock-down of CG4629 [DRSC37049] the results were inactive.
After knock-down of Ugt36F1 [DRSC02601], the screen gave firefly reporter light, replicate 1 = 1.39e5; firefly reporter light, replicate 2 = 1.40e5; Renilla control light, replicate 1 = 1.27e6; Renilla control light, replicate 2 = 1.34e6; inactive.
After knock-down of CG15498 [DRSC15040], the record shows firefly reporter light, replicate 1 = 3.98e5; firefly reporter light, replicate 2 = 3.74e5; Renilla control light, replicate 1 = 4.34e6; Renilla control light, replicate 2 = 4.91e6; inactive.
After knock-down of CG13589 [DRSC04225], the record shows firefly reporter light, replicate 1 = 3.92e5; firefly reporter light, replicate 2 = 4.24e5; Renilla control light, replicate 1 = 2.21e6; Renilla control light, replicate 2 = 2.39e6; inactive.
CG13589 [DRSC26885] scored firefly reporter light, replicate 1 = 3.05e5; firefly reporter light, replicate 2 = 4.41e5; Renilla control light, replicate 1 = 7.56e5; Renilla control light, replicate 2 = 1.03e6; inactive.
Against Est-6 [DRSC11162] the deposit lists firefly reporter light, replicate 1 = 1.69e5; firefly reporter light, replicate 2 = 1.52e5; Renilla control light, replicate 1 = 1.83e6; Renilla control light, replicate 2 = 1.52e6; inactive.
Est-6 [DRSC39111] scored firefly reporter light, replicate 1 = 9.43e5; firefly reporter light, replicate 2 = 6.81e5; Renilla control light, replicate 1 = 1.81e6; Renilla control light, replicate 2 = 1.92e6; inactive.
With knock-down of nAChRalpha5 [DRSC01946], the screen gave firefly reporter light, replicate 1 = 3.54e5; firefly reporter light, replicate 2 = 3.07e5; Renilla control light, replicate 1 = 2.56e6; Renilla control light, replicate 2 = 1.89e6; inactive.
After knock-down of nAChRalpha5 [DRSC01947], the screen gave firefly reporter light, replicate 1 = 2.70e5; firefly reporter light, replicate 2 = 4.58e5; Renilla control light, replicate 1 = 4.86e5; Renilla control light, replicate 2 = 7.46e5; inactive.
Against nAChRalpha5 [DRSC22785] the deposit lists firefly reporter light, replicate 1 = 5.50e5; firefly reporter light, replicate 2 = 7.55e5; Renilla control light, replicate 1 = 1.11e5; Renilla control light, replicate 2 = 1.53e5; inactive.
Against nAChRalpha5 [DRSC29085] the deposit lists firefly reporter light, replicate 1 = 4.47e5; firefly reporter light, replicate 2 = 4.55e5; Renilla control light, replicate 1 = 9.11e5; Renilla control light, replicate 2 = 7.16e5; inactive.
Cyp6a23 [DRSC07383] showed firefly reporter light, replicate 1 = 63283; firefly reporter light, replicate 2 = 1.38e5; Renilla control light, replicate 1 = 2.04e6; Renilla control light, replicate 2 = 2.04e6; inactive.
After knock-down of Cyp6a23 [DRSC29473], the record shows firefly reporter light, replicate 1 = 4.51e5; firefly reporter light, replicate 2 = 5.15e5; Renilla control light, replicate 1 = 9.49e5; Renilla control light, replicate 2 = 9.49e5; inactive.
Depletion of ChAT [DRSC16609] came out at: firefly reporter light, replicate 1 = 3.23e5; firefly reporter light, replicate 2 = 2.43e5; Renilla control light, replicate 1 = 3.91e6; Renilla control light, replicate 2 = 2.59e6; inactive.
ChAT [DRSC22755] gave firefly reporter light, replicate 1 = 7.35e5; firefly reporter light, replicate 2 = 9.37e5; Renilla control light, replicate 1 = 1.71e6; Renilla control light, replicate 2 = 2.58e6; inactive.
With knock-down of Fdx1 [DRSC11167] the results were firefly reporter light, replicate 1 = 2.11e5; firefly reporter light, replicate 2 = 1.50e5; Renilla control light, replicate 1 = 2.63e6; Renilla control light, replicate 2 = 2.38e6; inactive.
Knock-down of Fdx1 [DRSC28052] came out at: firefly reporter light, replicate 1 = 3.08e5; firefly reporter light, replicate 2 = 2.68e5; Renilla control light, replicate 1 = 1.31e6; Renilla control light, replicate 2 = 1.10e6; inactive.
Mvk + CG33672 + spt4 [DRSC05356] gave firefly reporter light, replicate 1 = 2.75e5; firefly reporter light, replicate 2 = 2.44e5; Renilla control light, replicate 1 = 3.29e5; Renilla control light, replicate 2 = 2.10e5; inactive.
Mvk + CG33672 + spt4 [DRSC06628] showed firefly reporter light, replicate 1 = 1.22e6; firefly reporter light, replicate 2 = 1.14e6; Renilla control light, replicate 1 = 1.09e6; Renilla control light, replicate 2 = 1.67e6; inactive.
Silencing of Mvk + CG33672 + spt4 [DRSC37082] gave: inactive.

Single entries from the entries so far.
Cyp6a23 [DRSC29473], Renilla control light, replicate 2 = 9.49e5
Ugt36F1 [DRSC02601], Call → inactive
